PubChem BioAssay AID504808 – Drosophila RNAi Screening Center – 2011
Purpose: 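Genes whose loss lifts activity of an E2F-responsive reporter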 (primary screen). System: Drosophila S2 cells. Reagents: long dsRNA against Drosophila genes. Read-out: 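Dual luciferase plate measurements; E2F-specific signal taken as firefly over Renilla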. Reading the numbers: E2F firefly: higher = more E2F reporter activity; Renilla normaliser: higher = more normaliser reporter signal. Hit rule: 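Called active if the normalised E2F reporter went up by over 50%; the cutoff is arbitrary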.
The screen tested about 21,000 reagents; below is an unselected part of those with a known target gene and a result. Of all reagents, 18 (0.084%) were called active. 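Raw counts without plate normalisation, one of two replicates; the ratio scores behind the calls were not deposited.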 Reagents against one gene are numbered here. A plus sign joins genes that one reagent is predicted to hit. No sequences are given here. Not given: the amount of reagent, the time to read-out.

gene,reagent,"E2F firefly, rep 1","Renilla normaliser, rep 1",outcome
Rab3GAP1,1,1.63e5,5350,inactive
Rab3GAP1,2,1.75e5,6327,inactive
Irbp18,1,1.19e5,6329,inactive
CG14130,1,64482,1655,inactive
Usp12-46,1,1.21e5,6043,inactive
CG7950 + Rpp14a,1,1901,820,inactive
Epac,1,49888,3409,inactive
Epac,2,70389,3397,inactive
Epac,3,1.07e5,4219,inactive
Gnptab,1,1.46e5,4987,inactive
CG1635,1,1936,968,inactive
Spn28Dc,1,1.29e5,5248,inactive
CG11997,1,1.45e5,6213,inactive

Already shown: an excerpt of the list.
gene,reagent,"E2F firefly, rep 1","Renilla normaliser, rep 1",outcome
CG14130,1,64482,1655,inactive
Usp12-46,1,1.21e5,6043,inactive
CG7950 + Rpp14a,1,1901,820,inactive
Epac,1,49888,3409,inactive
Epac,2,70389,3397,inactive

Next reagents follow.
gene,reagent,"E2F firefly, rep 1","Renilla normaliser, rep 1",outcome
zuc,1,82186,3102,inactive
CG33230,1,83804,3282,inactive
CG6357,1,182,43,inactive
CG3502 + CG9863,1,1.08e5,4454,inactive
CG1227,1,81910,3691,inactive
CG17636,1,1.44e5,6469,inactive
CG1909,1,1931,1156,inactive
Anp,1,1.23e5,6363,inactive
sle,1,68382,3900,inactive
CG31115,1,84262,2935,inactive
mtm,1,81810,3534,inactive
Wnt2,1,1.38e5,6341,inactive
Wnt2,2,1.36e5,5097,inactive
CG12853,1,1.05e5,4252,inactive
Hibch,1,71463,3403,inactive
Nox,1,1.41e5,5361,inactive
Nox,2,1.32e5,5112,inactive
CG11360,1,89624,2394,inactive
CG11360,2,55545,4598,inactive
CG31036,1,1.29e5,6817,inactive
CG31036,2,1.33e5,6656,inactive
